{"source": "PubChem BioAssay AID504786 (Drosophila RNAi Screening Center, 2011)", "assay": "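Knock-downs reducing HIF reporter induction by the iron chelator DFO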 (primary screen)", "cells": "Drosophila S2 cells with a stable HIF luciferase reporter", "reagent": "long dsRNA against Drosophila genes, about 0.2 µg dsRNA per well of a 384-well plate", "timing": "three days of knock-down, then 20 h of DFO before reading", "challenge": "desferrioxamine (DFO) at 100 µM, an iron chelator that mimics hypoxia, for 20 h", "read-out": "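Firefly luciferase driven by the mouse ldh-a hypoxia-response element, measured after 20 h of 100 µM DFO; z-scores per plate, higher means more signal lost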", "direction": "z-score: higher = stronger loss of HIF reporter signal", "note": "The screen tested about 21,000 reagents; shown is a random part of those that have a named target and a result. 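Primary screen; positive scores mean lost reporter signal, so the sign may be inverted from the usual convention.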"}
{"gene knocked down": "CG33494", "dsRNA": "DRSC13715", "z-score, replicate 1": -0.1, "z-score, replicate 2": 0}
{"gene knocked down": "TwdlV", "dsRNA": "DRSC12226", "z-score, replicate 1": -0.3, "z-score, replicate 2": -0.5}
{"gene knocked down": "CG14062", "dsRNA": "DRSC14725", "z-score, replicate 1": -0.3, "z-score, replicate 2": -0.1}
{"gene knocked down": "Pdfr", "dsRNA": "DRSC18614", "z-score, replicate 1": 0.8, "z-score, replicate 2": -0.3}
{"gene knocked down": "CG3437", "dsRNA": "DRSC10366", "z-score, replicate 1": -0.3, "z-score, replicate 2": 0.2}
{"gene knocked down": "CG42537", "dsRNA": "DRSC12519", "z-score, replicate 1": -0.3, "z-score, replicate 2": -0.2}
{"gene knocked down": "Aldh7A1", "dsRNA": "DRSC11083", "z-score, replicate 1": -0.2, "z-score, replicate 2": -0.3}
{"gene knocked down": "HemK1", "dsRNA": "DRSC03253", "z-score, replicate 1": -0.2, "z-score, replicate 2": 0.2}
{"gene knocked down": "CG34452", "dsRNA": "DRSC09387", "z-score, replicate 1": 0.2, "z-score, replicate 2": 0.1}
{"gene knocked down": "CG5890", "dsRNA": "DRSC15909", "z-score, replicate 1": -0.2, "z-score, replicate 2": -0.2}
{"gene knocked down": "CG8818", "dsRNA": "DRSC07275", "z-score, replicate 1": -0.3, "z-score, replicate 2": -0.2}
{"gene knocked down": "Ir11a", "dsRNA": "DRSC19699", "z-score, replicate 1": -0.3, "z-score, replicate 2": -0.6}
{"gene knocked down": "CG17752", "dsRNA": "DRSC15262", "z-score, replicate 1": -0.3, "z-score, replicate 2": -0.5}
{"gene knocked down": "NaCP60E", "dsRNA": "DRSC04307", "z-score, replicate 1": -0.2, "z-score, replicate 2": -0.2}
{"gene knocked down": "CG15145", "dsRNA": "DRSC02446", "z-score, replicate 1": -0.2, "z-score, replicate 2": -0.5}
{"gene knocked down": "Scamp", "dsRNA": "DRSC20286", "z-score, replicate 1": -0.2, "z-score, replicate 2": 0.1}
{"gene knocked down": "CG33234", "dsRNA": "DRSC07994", "z-score, replicate 1": -0.3, "z-score, replicate 2": -0.2}
{"gene knocked down": "CG32719", "dsRNA": "DRSC17525", "z-score, replicate 1": -0.1, "z-score, replicate 2": -0.1}
{"gene knocked down": "Mvl", "dsRNA": "DRSC16752", "z-score, replicate 1": -0.2, "z-score, replicate 2": -0.6}
{"gene knocked down": "CG15083", "dsRNA": "DRSC06514", "z-score, replicate 1": -0.2, "z-score, replicate 2": 0.7}
{"gene knocked down": "CG13018", "dsRNA": "DRSC06274", "z-score, replicate 1": 1.2, "z-score, replicate 2": 0.5}
{"gene knocked down": "CG32188", "dsRNA": "DRSC09510", "z-score, replicate 1": -0.2, "z-score, replicate 2": -0.3}
{"gene knocked down": "brv2", "dsRNA": "DRSC10226", "z-score, replicate 1": 0.2, "z-score, replicate 2": 0.1}
{"gene knocked down": "CG18577", "dsRNA": "DRSC15352", "z-score, replicate 1": -0.1, "z-score, replicate 2": 0.5}
{"gene knocked down": "eIF4EHP", "dsRNA": "DRSC13653", "z-score, replicate 1": -0.5, "z-score, replicate 2": -0.5}
{"gene knocked down": "eIF4EHP", "dsRNA": "DRSC14265", "z-score, replicate 1": -0.4, "z-score, replicate 2": -0.7}
{"gene knocked down": "Gal", "dsRNA": "DRSC03134", "z-score, replicate 1": -0.1, "z-score, replicate 2": -0.2}
{"gene knocked down": "CG17780", "dsRNA": "DRSC15265", "z-score, replicate 1": -0.6, "z-score, replicate 2": -0.7}
{"gene knocked down": "ND-SGDH", "dsRNA": "DRSC11102", "z-score, replicate 1": -0.1, "z-score, replicate 2": -0.3}
{"gene knocked down": "AANATL4", "dsRNA": "DRSC06774", "z-score, replicate 1": -0.3, "z-score, replicate 2": -0.1}
{"gene knocked down": "Usp32", "dsRNA": "DRSC10979", "z-score, replicate 1": -0.2, "z-score, replicate 2": 0.3}
{"gene knocked down": "CG5440", "dsRNA": "DRSC00685", "z-score, replicate 1": -0.5, "z-score, replicate 2": 0.9}
{"gene knocked down": "CG30083", "dsRNA": "DRSC05572", "z-score, replicate 1": -0.1, "z-score, replicate 2": -0.3}
{"gene knocked down": "thw", "dsRNA": "DRSC12552", "z-score, replicate 1": 0, "z-score, replicate 2": 0}
{"gene knocked down": "Sema2b", "dsRNA": "DRSC05609", "z-score, replicate 1": -0.9, "z-score, replicate 2": -0.4}
{"gene knocked down": "Sema2b", "dsRNA": "DRSC05611", "z-score, replicate 1": -0.7, "z-score, replicate 2": -0.2}
{"gene knocked down": "Sema2b", "dsRNA": "DRSC06867", "z-score, replicate 1": -0.2, "z-score, replicate 2": -0.7}
{"gene knocked down": "CG10587", "dsRNA": "DRSC11627", "z-score, replicate 1": -0.3, "z-score, replicate 2": -0.2}
{"gene knocked down": "Hyccin", "dsRNA": "DRSC06983", "z-score, replicate 1": -0.3, "z-score, replicate 2": -0.4}
{"gene knocked down": "Zmynd10", "dsRNA": "DRSC09826", "z-score, replicate 1": -0.3, "z-score, replicate 2": -0.2}
{"gene knocked down": "CG15747", "dsRNA": "DRSC19713", "z-score, replicate 1": -0.1, "z-score, replicate 2": 0}
{"gene knocked down": "Tsp42Eh", "dsRNA": "DRSC06190", "z-score, replicate 1": -0.3, "z-score, replicate 2": -0.4}
{"gene knocked down": "CG15390", "dsRNA": "DRSC00404", "z-score, replicate 1": 0.2, "z-score, replicate 2": 0.6}
{"gene knocked down": "CG9522", "dsRNA": "DRSC20197", "z-score, replicate 1": -0.4, "z-score, replicate 2": -0.2}
{"gene knocked down": "CG6908", "dsRNA": "DRSC16131", "z-score, replicate 1": -0.2, "z-score, replicate 2": 0}
{"gene knocked down": "Rpp14b", "dsRNA": "DRSC15063", "z-score, replicate 1": 0.1, "z-score, replicate 2": 0.3}
{"gene knocked down": "CG12917", "dsRNA": "DRSC06231", "z-score, replicate 1": -0.3, "z-score, replicate 2": -0.3}
{"gene knocked down": "Nnp-1", "dsRNA": "DRSC02165", "z-score, replicate 1": -0.1, "z-score, replicate 2": 3.7}
{"gene knocked down": "CG17944", "dsRNA": "DRSC12572", "z-score, replicate 1": -0.1, "z-score, replicate 2": 0.1}
{"gene knocked down": "Phb2", "dsRNA": "DRSC06512", "z-score, replicate 1": 1, "z-score, replicate 2": 0}
{"gene knocked down": "vls", "dsRNA": "DRSC02101", "z-score, replicate 1": 0.1, "z-score, replicate 2": 0.8}

Reformatted: results already given
gene knocked down,dsRNA,"z-score, replicate 1","z-score, replicate 2"
Sema2b,DRSC06867,-0.2,-0.7
CG10587,DRSC11627,-0.3,-0.2
Hyccin,DRSC06983,-0.3,-0.4
Zmynd10,DRSC09826,-0.3,-0.2
